# Experimental data as given in PubChem BioAssay AID540275 (National Center for Advancing Translational Sciences (NCATS), 2011).
# Protein sequences, listed by entry. Tags and fused reporters are not part of them.
# UniProt Q8NER1, whole entry, looked up: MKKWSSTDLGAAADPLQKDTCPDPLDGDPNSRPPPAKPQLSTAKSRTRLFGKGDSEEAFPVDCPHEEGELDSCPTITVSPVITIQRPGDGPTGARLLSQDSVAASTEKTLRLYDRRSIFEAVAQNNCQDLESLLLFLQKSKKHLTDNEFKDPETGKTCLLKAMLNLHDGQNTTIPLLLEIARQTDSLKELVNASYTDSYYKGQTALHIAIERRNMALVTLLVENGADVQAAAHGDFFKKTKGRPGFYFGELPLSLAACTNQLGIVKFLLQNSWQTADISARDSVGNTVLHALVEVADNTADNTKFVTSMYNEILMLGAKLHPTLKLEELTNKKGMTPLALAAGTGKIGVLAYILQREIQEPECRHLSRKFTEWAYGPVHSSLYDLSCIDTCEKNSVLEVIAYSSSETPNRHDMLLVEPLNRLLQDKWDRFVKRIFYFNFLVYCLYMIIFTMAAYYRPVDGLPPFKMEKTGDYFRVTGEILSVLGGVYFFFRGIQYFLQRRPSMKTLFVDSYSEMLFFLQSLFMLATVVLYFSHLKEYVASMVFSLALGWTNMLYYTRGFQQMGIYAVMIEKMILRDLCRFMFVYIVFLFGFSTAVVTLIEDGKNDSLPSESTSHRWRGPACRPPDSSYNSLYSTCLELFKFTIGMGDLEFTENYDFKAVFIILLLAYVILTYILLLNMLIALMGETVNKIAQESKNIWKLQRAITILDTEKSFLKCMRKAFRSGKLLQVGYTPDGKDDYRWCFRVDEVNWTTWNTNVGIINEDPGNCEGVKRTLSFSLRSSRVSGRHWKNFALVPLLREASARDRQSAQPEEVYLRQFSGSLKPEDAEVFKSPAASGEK
# Out of some 320,000 compounds screened, about 620 (0.19%) were called active. Inconclusive results, whose numbers are uncertain, are shown with a selection of clear calls. No stated cut-off is given here; in the data, active means activation above about 80%; inconclusive means between about 30% and that limit; inactive means weaker than that.
# Target: Transient receptor potential cation channel subfamily V member 1 (Homo sapiens) (UniProt Q8NER1)
# Test: HTS Assay for Compounds that Act as Agonists of the Vanilloid Receptor 1; further: 0% is about no effect
# Details: TRPV1-expressing cells, Fluo-8 calcium influx, agonist mode; at 8.33 µM, hits give high values
# How it was run: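 Fluo-8 calcium influx in TRPV1-expressing cells, kinetic read (ex 480/em 520 nm). Compound added and read 3 min for agonist activity, followed by capsaicin at EC20 final and 2 min further read for enhancement.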
row,Structure (SMILES),activation
1,CC(C)(C)c1cc(C(=O)N/N=C/c2cc3c(cc2Br)OCO3)n[nH]1,inconclusive: 30.2%
2,COc1ccc(N(C(=O)c2snc(C(N)=O)c2N)C(C(=O)NC2CCCC2)c2cc(OC)ccc2OC)c(OC)c1 (stereo unspecified),inconclusive: 40.6%
3,Cc1cccc(-n2c(O)c(C=Nc3ccc4c(c3)OCO4)c3ccccc3c2=O)n1,inconclusive: 36.6%
4,CCCSc1ccc2nc(-c3ccccc3)cn2c1,inconclusive: 54.1%
5,O=C(CCS(=O)(=O)c1cccs1)Nc1ccc(C(=O)NCc2ccc(F)cc2)cc1,inactive: -5.71%
6,CCS(=O)(=O)N1CCN(C(=O)CCC2CCCC2)CC1,inconclusive: 47.8%
7,Cc1ccc(-c2noc(CC(c3ccccc3)c3ccccc3)n2)cc1,inconclusive: 34.7%
8,CCOC(=O)C1(Cc2ccccc2C)CCCN(C(=O)c2ccc(OC)o2)C1 (stereo unspecified),inconclusive: 44.5%
9,Fc1ccc(Nc2cccc3nccnc23)cc1,inactive: 21.3%
10,Cc1ccc(C)c(Cn2nnc(C(=O)Nc3ccc4c(c3)OCCO4)c2N)c1,inactive: 0.551%
11,C/C(=N/Nc1nc(-c2ccccc2)c(CC(=O)O)s1)c1ccccc1,inconclusive: 30.7%
12,CN(C)S(=O)(=O)c1ccc(NC(=O)c2ccc3ncsc3c2)cc1,active: 80.1%
13,O=C(COc1ccccc1)Nc1nc(-c2cccs2)cs1,inconclusive: 43.7%
14,O=C(COC(=O)Cc1ccccc1F)NCCc1ccccc1,inconclusive: 53.2%
15,Cc1ccc([N+](=O)[O-])cc1-c1[nH]c(-c2ccc(O)c(O)c2)nc1-c1ccccc1,inconclusive: 33.8%
16,O=C(Nc1cccnc1)c1ccc(N2CCCC2)c([N+](=O)[O-])c1,active: 84.4%
17,S=C(c1ccc(-c2cccc(Cl)c2)o1)N1CCOCC1,inconclusive: 30.5%
18,CCN(CC(=O)NC1CCS(=O)(=O)C1)S(=O)(=O)c1ccc(C)cc1C (stereo unspecified),inactive: 1.44%
19,Cc1cccc(Cc2cnc(N3C(=N)SC(c4ccccc4)C3=O)s2)c1 (stereo unspecified),inactive: -2.08%
20,COc1ccc2c(c1OC)CN(C)CCc1cc3c(cc1C(=O)C2)OCO3,inactive: -1.78%
21,O=C1Nc2ccccc2/C1=C\c1cccn1-c1ccc(OC(F)(F)F)cc1,inactive: 23.9%
22,C=CCNCCOCCOc1ccc(C)cc1[N+](=O)[O-],inactive: -1.07%
23,c1ccc(Oc2ccc(-c3ccnc4nc(N5CCOCC5)nn34)cc2)cc1,inconclusive: 61%

# Two records picked at random from the list so far, as already listed:
row,Structure (SMILES),activation
20,COc1ccc2c(c1OC)CN(C)CCc1cc3c(cc1C(=O)C2)OCO3,inactive: -1.78%
8,CCOC(=O)C1(Cc2ccccc2C)CCCN(C(=O)c2ccc(OC)o2)C1 (stereo unspecified),inconclusive: 44.5%

# More results

row,Structure (SMILES),activation
1,O=S(=O)(c1ccccc1)N1CCN(C(=S)Nc2ccc(F)cc2)CC1,inconclusive: 34.3%
2,Cc1ccnc(NC(=O)CCC2CCCCC2)c1,inconclusive: 40.6%
3,O=C(CCNc1cccc(F)c1)c1cc2ccccc2o1,inconclusive: 42.3%
4,NC(=O)C1CCCN(C(=O)c2ccc(-c3cccc(Cl)c3Cl)o2)C1 (stereo unspecified),inconclusive: 41.7%
5,CN(C)C(=S)NC1CCS(=O)(=O)C1 (stereo unspecified),inactive: 1.69%
6,O=C(N/N=C/c1ccc(Br)cc1)c1ccc(Br)o1,inconclusive: 59.5%
7,CCCCCCNC(=O)c1ccc(Br)o1,inconclusive: 51.7%
8,COC(=O)CN=Cc1c(C)[nH]n(-c2ccccc2)c1=O,inactive: 1.59%
9,COc1ccc(N2CCN(CC(O)COc3ccc(F)cc3)CC2)cc1 (stereo unspecified),inactive: -5.17%
10,CCc1nc(Nc2ccccc2F)c2oc3ccccc3c2n1,inconclusive: 65.5%
11,COc1cc2c(cc1OC)CN(C(=S)Nc1ccc(OC(F)F)cc1)CC2,inconclusive: 62.8%
12,COc1cccc(Cn2cc(C)cc(NC(=O)NCc3ccccc3)c2=O)c1,inconclusive: 37.5%
13,COc1ccc(C(=O)CSc2nnc(-c3ccc(S(=O)(=O)N4CCOCC4)cc3)o2)cc1,inactive: -0.395%
14,CC(C)CC1CC(=O)OC1(C)C(=O)CSc1nc2ccccc2s1 (stereo unspecified),inconclusive: 35.7%
15,CCCCCNC(=O)C(C)Sc1ccc(Cl)cc1 (stereo unspecified),inconclusive: 34.7%
16,O=C(O)c1cc(N2C(=O)C3CC=CCC3C2=O)ccc1NCc1cccnc1 (stereo unspecified),inactive: 0.224%
17,CCOC(=O)c1csc(Nc2nc3ccc(F)cc3s2)n1,inactive: 21.6%
18,CC1(C)C2CC=C(/C=N/NC(=O)c3ccc(Cl)cc3)C1C2 (stereo unspecified),inconclusive: 51.3%
19,CC(=O)Nc1ccc(Cc2nc3c([nH]2)c(=O)n(C)c(=O)n3C)cc1,inactive: -1.48%
20,CCCOP(=O)(c1ccc(N(C)C)cc1)C(Nc1ccccc1)c1ccc(C)cc1 (stereo unspecified),inconclusive: 35.5%
21,O=C(NCCN1CCOCC1)C(=O)NCC1CCCO1 (stereo unspecified),inactive: -1.57%
22,O=C(CSc1nc2ccccc2[nH]1)N/N=C/C=C\c1ccccc1[N+](=O)[O-],inconclusive: 30.5%
23,O=C1C(NS(=O)(=O)c2ccc(Br)cc2)=C(N2CCCCC2)C(=O)c2ccccc21,inactive: 9.7%
